No constants are given. Whether binding was seen depends on the method and setting. In cells and extracts the contact can be indirect. Some entries that bind do so weakly or less than the wild type. Sequences can lack the tags named with a protein.
Target: TNFR1 in the co-IP from transfected Huh7 cells (Figure 1E) (UniProt P19438)
Test: co-IP; Huh7 cells 48 h after transfection with the indicated plasmids; IP with IgG, anti-Flag or anti-TNFR1; western blot

Protein sequences, listed by entry. Tags and fused reporters are not part of them. Residues count along the entry.
UniProt P19438, residues 30-455: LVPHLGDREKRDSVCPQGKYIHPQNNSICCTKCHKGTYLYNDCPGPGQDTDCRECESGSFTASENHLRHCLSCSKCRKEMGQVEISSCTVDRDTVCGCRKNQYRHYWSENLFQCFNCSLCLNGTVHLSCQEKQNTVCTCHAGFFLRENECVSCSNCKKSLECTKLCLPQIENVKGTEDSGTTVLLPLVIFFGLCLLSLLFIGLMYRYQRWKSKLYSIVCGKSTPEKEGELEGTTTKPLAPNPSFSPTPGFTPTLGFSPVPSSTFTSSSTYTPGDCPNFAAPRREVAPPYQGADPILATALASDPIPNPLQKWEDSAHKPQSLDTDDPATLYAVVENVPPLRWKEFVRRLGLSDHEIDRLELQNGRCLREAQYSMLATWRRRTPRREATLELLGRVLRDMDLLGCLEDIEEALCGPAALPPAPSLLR

- binding: binds
B1: Flag-HRG (protein, UniProt P04196 19-525)
chain: VSPTDCSAVEPEAEKALDLINKRRRDGYLFQLLRIADAHLDRVENTTVYYLVLDVQESDCSVLSRKYWNDCEPPDSRRPSEIVIGQCKVIATRHSHESQDLRVIDFNCTTSSVSSALANTKDSPVLIDFFEDTERYRKQANKALEKYKEENDDFASFRVDRIERVARVRGGEGTGYFVDFSVRNCPRHHFPRHPNVFGFCRADLFYDVEALDLESPKNLVINCEVFDPQEHENINGVPPHLGHPFHWGGHERSSTTKPPFKPHGSRDHHHPHKPHEHGPPPPPDERDHSHGPPLPQGPPPLLPMSCSSCQHATFGTNGAQRHSHNNNSSDLHPHKHHSHEQHPHGHHPHAHHPHEHDTHRQHPHGHHPHGHHPHGHHPHGHHPHGHHPHCHDFQDYGPCDPPPHNQGHCCHGHGPPPGHLRRRGPGKGPRPFHCRQIGSVYRLPPLRKGEVLPLPEANFPSFPLPHHKHPLKPDNQPFPQSVSESCPGKFKSGFPQVSMFFTHTFPK

Source: paper PMC7482824
